Measured values published in patent publication US20230373974A1, “MODULATORS OF CYSTIC FIBROSIS TRANSMEMBRANE CONDUCTANCE REGULATOR” (VERTEX PHARMACEUTICALS INCORPORATED, priority 2020, published 2023).
The structures given here were assigned with low confidence; some may be wrong.

Amino acid sequences for entries named in this document (tags omitted). Chains listed by the source or under a name are the forms on record and can include a tag or linker.
UniProt P13569, with tags, fused parts or gaps DEL508-508: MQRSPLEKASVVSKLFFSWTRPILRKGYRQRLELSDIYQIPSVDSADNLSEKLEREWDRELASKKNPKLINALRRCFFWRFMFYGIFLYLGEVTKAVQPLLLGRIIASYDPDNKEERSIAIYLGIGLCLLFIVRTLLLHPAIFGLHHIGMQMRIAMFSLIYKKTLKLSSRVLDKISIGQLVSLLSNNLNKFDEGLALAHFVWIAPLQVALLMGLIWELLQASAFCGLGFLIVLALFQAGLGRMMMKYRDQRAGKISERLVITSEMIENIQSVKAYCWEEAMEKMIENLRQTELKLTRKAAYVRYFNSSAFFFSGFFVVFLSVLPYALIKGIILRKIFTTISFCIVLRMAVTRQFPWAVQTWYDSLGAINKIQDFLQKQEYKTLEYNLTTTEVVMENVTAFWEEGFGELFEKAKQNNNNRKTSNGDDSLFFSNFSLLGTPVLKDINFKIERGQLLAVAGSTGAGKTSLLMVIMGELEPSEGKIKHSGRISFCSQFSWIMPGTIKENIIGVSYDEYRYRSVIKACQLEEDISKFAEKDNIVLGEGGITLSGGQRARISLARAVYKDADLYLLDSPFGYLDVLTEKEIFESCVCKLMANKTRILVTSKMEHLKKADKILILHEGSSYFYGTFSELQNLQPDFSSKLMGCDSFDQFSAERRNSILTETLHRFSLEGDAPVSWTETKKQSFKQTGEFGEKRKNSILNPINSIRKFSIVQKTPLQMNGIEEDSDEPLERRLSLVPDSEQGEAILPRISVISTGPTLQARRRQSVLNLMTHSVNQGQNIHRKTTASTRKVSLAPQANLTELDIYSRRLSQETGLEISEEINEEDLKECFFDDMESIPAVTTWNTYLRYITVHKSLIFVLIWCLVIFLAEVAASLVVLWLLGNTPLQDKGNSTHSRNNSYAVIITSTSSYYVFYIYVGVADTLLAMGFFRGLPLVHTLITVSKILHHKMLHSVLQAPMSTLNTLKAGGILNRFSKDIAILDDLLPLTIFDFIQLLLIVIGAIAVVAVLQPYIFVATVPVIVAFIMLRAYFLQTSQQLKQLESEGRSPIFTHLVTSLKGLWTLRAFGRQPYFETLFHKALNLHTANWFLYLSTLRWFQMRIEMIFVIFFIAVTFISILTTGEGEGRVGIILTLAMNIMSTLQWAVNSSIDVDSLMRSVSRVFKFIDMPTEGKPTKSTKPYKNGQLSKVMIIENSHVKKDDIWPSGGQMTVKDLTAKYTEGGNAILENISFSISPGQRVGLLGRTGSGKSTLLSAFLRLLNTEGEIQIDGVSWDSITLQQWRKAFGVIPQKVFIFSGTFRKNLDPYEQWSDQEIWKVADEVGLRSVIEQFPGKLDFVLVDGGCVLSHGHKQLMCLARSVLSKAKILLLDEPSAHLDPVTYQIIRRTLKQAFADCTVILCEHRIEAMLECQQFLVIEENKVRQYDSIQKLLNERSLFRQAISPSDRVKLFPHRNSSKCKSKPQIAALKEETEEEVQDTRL

Molecular target: F508del in NIH 3T3 cells (Homo sapiens, UniProt P13569, DEL508-508)
Assay: 3T3 assay: membrane potential optical assay for F508del correction
Details: F508del NIH 3T3 cells
Source text: 1. Membrane Potential Optical Methods for Assaying F508del Modulation Properties of Compounds
The assay utilizes fluorescent voltage sensing dyes to measure changes in membrane potential using a fluorescent plate reader (e.g., FLIPR III, Molecular Devices, Inc.) as a readout for increase in functional F508del in NIH 3T3 cells. The driving force for the response is the creation of a chloride ion gradient in conjunction with channel activation by a single liquid addition step after the cells have previously been treated with compounds and subsequently loaded with a voltage sensing dye.
2. Identification of Corrector Compounds
To identify correctors of F508del, a single-addition HTS assay format was developed. This HTS assay utilizes fluorescent voltage sensing dyes to measure changes in membrane potential on the FLIPR III as a measurement for increase in gating (conductance) of F508del in F508del NIH 3T3 cells. The F508del NIH 3T3 cell cultures were incubated with the corrector compounds at a range of concentrations for 18-24 hours at 37° C., and subsequently loaded with a redistribution dye. The driving force for the response is a Cl^− ion gradient in conjunction with channel activation with forskolin in a single liquid addition step using a fluorescent plate reader such as FLIPR III. […]

CCC(C)(C)C1CCc2nc(NS(=O)(=O)c3ccccc3)sc2C1 (centres unmarked)
3T3 Max Activity (%) (efficacy compared to lumacaftor in combination with acutely added 300 nM Ivacaftor): ++ (++ is 30-60%)
EC50 (read-out: 3T3 EC50, incubated with compound 18-24 hours at 37° C., forskolin activation): 1000 to 3000 nM
